Values scatter widely in this assay.
B1: human tRNA-Pro; a variant is named by its letters at N, in order (parent)
chain: GGCTCGTTGGTCTAGNGGTATGATTCTCGCTTAGGGTGCGAGAGGTCCCGGGTTCNNATCCCGGACGAGCCC

Variants of: B1
Assay: tRNA 5' processing efficiency (processed reads / all reads, maximum-likelihood estimate) (fraction); higher = more efficient 5' processing
Conditions: HEK293T; construct: CMV Pol-II promoter ((+)CMV library, decapped)

Variant | tRNA 5' processing efficiency
GTT T54C | 0.25
CTT C55G A58C | 0.57
GTG T53A A58G | 0.4
GTG G18A T19A | 0.33
CTA T8G T19A | 0.05
GTC G9C G17C C55T | 0.25
GTT G17A T19G A20G C55T | 0.07
GTA T19G T54A C55G | 0.25
CTC C55G A58T | 0.06
GTC A14G G15C G17A T19G C55T | 0.33
TTC G9A G18C | 0.4
GTT G15A T19C T54A | 0.25
ATC A14G G15C | 0.17
GTA T8G T53G | 0.25
GTC A20T A58T T59A | 0.5
GTA T8C G15C C55G T59A | 0.13
TTC T19A T53A T59G | 0.2
GTT G51A A58C | 0.25
GTA T54A C55G | 0.2
TTA T53G | 0.62
GTA T8A A14T | 0.33
GTC A58T | 0.25
TTT G9C A14C G17A G18T | 0.2

A different layout for part of the listing above.
Variant,tRNA 5' processing efficiency
GTT T54C,0.25
CTT C55G A58C,0.57
GTG T53A A58G,0.4
GTG G18A T19A,0.33
CTA T8G T19A,0.05
GTC G9C G17C C55T,0.25
GTT G17A T19G A20G C55T,0.07
GTA T19G T54A C55G,0.25
CTC C55G A58T,0.06
GTC A14G G15C G17A T19G C55T,0.33
TTC G9A G18C,0.4

(continued)

Variant | tRNA 5' processing efficiency
GTG G9T G18A T53G A58T | 0.25
GTA T8C G15C G18C T54G | 0.5
GTG G9C G17T A58T | 0.09
GTA T8A C55T A58T T59A | 0.33
GTA G18C T19C A20T | 0.33
GTA T8G T19A | 0.25
GTA G18T A20T | 0.11
GTG T19G T53C | 0.2
GTG G17A T19G | 0.25
GTA G18T A58G T59G | 0.33
GTA T8G G9T A14T T19A | 0.25
GTA T8G G15T G18A C55A T59G | 0.33
ATT T8A T53C A58T | 0.5
GTA T54G A58T | 0.2
GTA T8A G9A G15T T19A C55T | 0.33
GTC A14G C55T | 0.25
GTA T54A T59G | 0.2
GTC G18T A58T T59G | 0.25
GTT G18C A20T | 0.11
GTT T8A G17T G18T A58G | 0.33
GTG G18A T54A C55T | 0.69
TTA T8C G17C | 0.33
